The chains behind the UniProt entries cited, without tags or fusion partners. Where a name states a change or a piece, a line headed by the entry shows the natural chain unless it says otherwise.
UniProt P43235: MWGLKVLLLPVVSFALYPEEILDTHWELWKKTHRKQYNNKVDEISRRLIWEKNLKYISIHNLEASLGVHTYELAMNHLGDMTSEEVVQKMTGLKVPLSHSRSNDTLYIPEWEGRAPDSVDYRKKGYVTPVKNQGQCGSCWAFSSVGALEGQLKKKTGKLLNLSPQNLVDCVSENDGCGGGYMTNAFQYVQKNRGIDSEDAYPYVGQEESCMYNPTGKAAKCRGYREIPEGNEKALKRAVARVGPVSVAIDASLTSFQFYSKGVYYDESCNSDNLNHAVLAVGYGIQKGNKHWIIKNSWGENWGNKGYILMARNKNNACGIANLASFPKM
UniProt P84022: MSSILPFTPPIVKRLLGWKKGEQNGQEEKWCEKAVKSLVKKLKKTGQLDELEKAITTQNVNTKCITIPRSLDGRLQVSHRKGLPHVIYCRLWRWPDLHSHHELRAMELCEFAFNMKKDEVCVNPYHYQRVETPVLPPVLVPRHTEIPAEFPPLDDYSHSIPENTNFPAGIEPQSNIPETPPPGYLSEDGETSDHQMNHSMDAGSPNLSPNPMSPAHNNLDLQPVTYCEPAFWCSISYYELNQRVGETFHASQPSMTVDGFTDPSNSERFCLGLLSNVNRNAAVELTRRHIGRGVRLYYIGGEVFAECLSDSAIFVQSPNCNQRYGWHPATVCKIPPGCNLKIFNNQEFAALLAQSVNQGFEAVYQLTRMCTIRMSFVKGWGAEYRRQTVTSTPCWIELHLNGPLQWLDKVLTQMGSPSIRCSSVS

According to PMC12442634:

Target: recombinant Cathepsin K (rCTSK), His-tagged (UniProt P43235)
Test: co-IP; MRC-5 cells treated with or without TGF-β1 and rCTSK (0.1 µg/mL) for 24 h; precipitating antibody not told for this panel; only the target purified

binding: binds
Substance: phosphorylated SMAD3, endogenous in MRC-5 cells (from UniProt P84022 1-425)

No constants are given. Whether binding was seen depends on the method and setting. Binding seen in cells or lysates may run through a third protein. Binding can be weak; no strength is given.
